In PubChem BioAssay AID504467 (National Center for Advancing Translational Sciences (NCATS), 2011):
Hit rate of the full screen: of about 330,000 compounds, about 7,700 (2.3%) were called active. This list was built around the results that the source calls inconclusive (neither active nor inactive); the mix of calls is not that of the screen. Calls come from the whole dose curve; as a rule, active = well fitted inhibition curve with a large enough effect; inconclusive = small, poorly fitted or top-dose-only effect, or effect the other way; inactive = flat fitted curve, though single readings scatter. Potencies of inconclusive entries are doubtful fits and often do not repeat.

Assay: qHTS screen for small molecules that inhibit ELG1-dependent DNA repair in human embryonic kidney (HEK293T) cells expressing luciferase-tagged ELG1; note: nearly all actives have a fitted effect of over 55% in size
Conditions: HEK293T ELG1-luciferase reporter, luminescence, 16 h, DNA damage induced by 5-fluorouridine; series mostly up to 46.1 µM
Summary of the method: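 Cells (2,000 per well) received 5-fluorouridine plus test compound or DMSO and were incubated 16 hr at 37 °C, 5% CO2. Luciferase activity was read by luminescence 30 min after ONE-Glo addition; signal suppression marked inhibition of damage-induced ELG1 function.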
Potency is the fitted concentration of half-maximal effect.

Row | Compound | Potency
1 | CCN(CC(=O)Nc1ccc(NC(C)=O)cc1)C(=O)COc1ccccc1-c1ccccc1 | inactive
2 | O=C(CCS(=O)(=O)c1ccccc1)NC1CCCCC1 | inconclusive: 14.6 µM [activator, partial curve]
3 | Cc1c(NC(=O)CN2C(=O)c3cccc4cccc2c34)c(=O)n(-c2ccccc2)n1C | inconclusive: 0.164 µM [activator, partial curve, poor fit]
4 | Cc1ccc(Nc2ccc([N+](=O)[O-])cn2)cc1Cl | inconclusive: 20.6 µM [activator, partial curve]
5 | COc1cccc(COC(=O)C2CC(=O)N(Cc3ccco3)C2)c1OC (stereo unspecified) | inconclusive: 13 µM [activator, partial curve, poor fit]
6 | Cc1cc2ncn(C(=O)N3CCCCCC3)c2cc1C | inconclusive: 14.6 µM [activator, partial curve]
7 | O=C(NCCN1CCOCC1)c1ccc(NS(=O)(=O)c2cccc([N+](=O)[O-])c2)cc1 | inactive
8 | COc1ccc(OCCCC(=O)N(C)CC(=O)Nc2ccccc2Cl)cc1 | inactive
9 | CC(C)(C)c1ccc(-n2ncc3c2CCCC3NC(=O)C2=NNC(=O)CC2)cc1 (stereo unspecified) | inconclusive: 10.3 µM [inhibitor, partial curve]
10 | CCCc1nc2sc3c(c2c(=O)n1NC(=O)CCC(=O)O)CCCC3 | inactive
11 | O=[N+]([O-])c1ccccc1N/N=C1\CCc2ccccc21 | inconclusive: 4.61 µM [activator, full curve]
12 | CCOc1ccc(C(=O)OCC(=O)NCCNC(=O)COC(=O)c2ccc(OCC)cc2)cc1 | inactive
13 | O=C(NCCc1ccccc1)c1cc2ncc(Br)cn2n1 | inconclusive: 4.11 µM [activator, single point]
14 | CCCOc1ccccc1OCC(=O)Nc1cccc(S(=O)(=O)NC2=NCCC2)c1 | inactive
15 | COc1ccc(Nc2nc(C)cc(=O)[nH]2)c(OC)c1 | inconclusive: 20.6 µM [activator, single point]
16 | COc1ccc(F)cc1S(=O)(=O)N1CCC2(CC1)OCCN2S(=O)(=O)c1cccs1 | inactive
17 | COc1ccc(C(=O)NC(=S)N(Cc2ccccc2)Cc2ccccc2)cc1 | inconclusive: 5.17 µM [activator, full curve, poor fit]
18 | CCc1ccccc1NC(=S)N1CCC(C(=O)c2ccc(F)cc2)CC1 | inconclusive: 29.1 µM [inhibitor, single point]
19 | O=C1CCc2cc(S(=O)(=O)N3CCCCC3)cc3c2N1CC3 | inconclusive: 7.3 µM [activator, single point]
20 | O=S(=O)(c1cccc(C(F)(F)F)c1)N1CCN(CC(O)COCc2ccccc2)CC1 (stereo unspecified) | inconclusive: 20.6 µM [inhibitor, single point]
21 | COc1ccc(C(=O)NC(=S)Nc2nc(C)cc(C)n2)cc1Br | inactive
22 | COc1cccc(NC(=O)c2ccccc2)c1 | inconclusive: 15.8 µM [activator, single point]
23 | c1ccc(CSc2nnc3c4ccccc4c4ccccc4c3n2)cc1 | inactive
24 | COc1cc2c3c(c1)/C(=C1/SC(NC(C)=O)=NC1=O)C(=O)N3C(C)(C)C=C2C | inconclusive: 18.4 µM [inhibitor, single point]

Row | Compound | Potency
25 | O=c1n(-c2ccc(Br)cc2)cnn1-c1ncccc1[N+](=O)[O-] | inconclusive: 14.6 µM [activator, partial curve]
26 | COc1ccc(-c2oc(=O)c3cc(OC)c(OC)cc3c2/C=C/c2cccc([N+](=O)[O-])c2)cc1 | active: 1.64 µM
27 | C=CCN=C1NN=C(c2ccc3c(c2)OCCO3)CS1 | inconclusive: 0.461 µM [activator, full curve]
28 | CCCCCc1ccc(CC(=O)Nn2c(C)nc3ccccc3c2=O)cc1 | inconclusive: 10.3 µM [inhibitor, partial curve]
29 | COC(=O)Cc1csc(Nc2ccc(Cl)cc2)n1 | inconclusive: 18.4 µM [activator, partial curve]
30 | CC(C)Nc1nnc(SCC(=O)c2c(N)n(Cc3ccccc3)c(=O)n(C)c2=O)s1 | active: 18.4 µM
31 | CCCCN(C(=O)c1ccc(N2CCCC2=O)cc1)c1c(N)n(CCC)c(=O)[nH]c1=O | inactive
32 | Cc1ccc(C)c(OCCC(=O)OCC(=O)Nc2ccc(Cl)cn2)c1 | inactive
33 | Cc1ccccc1C(=O)NC(=S)N(CCO)Cc1ccccc1 | inactive
34 | O=C(Nc1sc2c(c1C(=O)O)CCC2)c1ccccc1 | inconclusive: 20.6 µM [activator, partial curve]
35 | CCCNc1c(NS(=O)(=O)c2ccc3c(c2)CCCC3)c(=O)oc2ccccc12 | inconclusive: 3.66 µM [activator, partial curve, poor fit]
36 | c1ccc(Cc2ccc(OCCn3ccnc3)cc2)cc1 | inconclusive: 29.1 µM [activator, single point]
37 | COc1cccc(N(CC(=O)NCCSCc2ccco2)S(=O)(=O)c2ccccc2)c1 | inconclusive: 32.6 µM [inhibitor, single point]
38 | O=C(c1ccco1)N(CCC(c1ccccc1)c1ccco1)Cc1ccco1 (stereo unspecified) | inconclusive: 35.5 µM [activator, single point]
39 | O=C(OCC(=O)N1CCOCC1)c1cc(S(=O)(=O)N2CCOCC2)c(Cl)cc1Cl | inconclusive: 18.3 µM [inhibitor, single point]
40 | CCOC(=O)/C(C#N)=C/c1c(N2CCN(C)CC2)nc2ccccn2c1=O | inactive
41 | CCCCn1c(=O)[nH]c2c(oc3ccccc32)c1=O | inactive
42 | Cc1ccc(C)n1-c1ccc(NC(=O)c2ccccc2)cc1 | inconclusive: 1.3 µM [activator, full curve]
43 | COc1cc(C(=O)NC2CC(C)(C)Cc3c2cnn3-c2ccccc2)cc(OC)c1OC (stereo unspecified) | inconclusive: 29.1 µM [activator, single point]
44 | O=C(CCC(=O)N1CCOc2ccccc21)N1CCN(c2ccccc2)CC1 | inactive
45 | O=C(CSCc1cccc(Cl)c1)N/N=C/c1ccc(OCC(=O)N2CCCCC2)cc1 | inactive
46 | Cc1ccc(CS(=O)Cc2ccc(C(=O)NCc3ccc(OC(C)C)cc3)o2)cc1 (stereo unspecified) | active: 7.3 µM
47 | O=C(CN1C(=O)c2ccccc2S1(=O)=O)N1CCOCC1 | inconclusive: 23.1 µM [activator, partial curve]
48 | COc1cc(Nc2ccc(S(N)(=O)=O)cc2)c([N+](=O)[O-])nc1[N+](=O)[O-] | inconclusive: 3.55 µM [activator, single point]

No new results follow: entries from further up.
Row | Compound | Potency
36 | c1ccc(Cc2ccc(OCCn3ccnc3)cc2)cc1 | inconclusive: 29.1 µM [activator, single point]
37 | COc1cccc(N(CC(=O)NCCSCc2ccco2)S(=O)(=O)c2ccccc2)c1 | inconclusive: 32.6 µM [inhibitor, single point]
38 | O=C(c1ccco1)N(CCC(c1ccccc1)c1ccco1)Cc1ccco1 (stereo unspecified) | inconclusive: 35.5 µM [activator, single point]
39 | O=C(OCC(=O)N1CCOCC1)c1cc(S(=O)(=O)N2CCOCC2)c(Cl)cc1Cl | inconclusive: 18.3 µM [inhibitor, single point]
40 | CCOC(=O)/C(C#N)=C/c1c(N2CCN(C)CC2)nc2ccccn2c1=O | inactive

More results:

Row | Compound | Potency
49 | CC[C@H](C)C(C(=O)N1CCN(C(=O)OC(C)(C)C)CC1)n1cc(C(Cc2ccc(O)cc2)NC(=O)OC(C)(C)C)nn1 (stereo partly specified) | inconclusive: 18.3 µM [inhibitor, single point]
50 | CC(=O)C(C(c1ccccc1)c1c[nH]c2ccccc12)[N+](=O)[O-] (stereo unspecified) | inconclusive: 13 µM [inhibitor, partial curve, poor fit]
51 | COc1ccc(CNC(=O)C/C(C)=N/NC(=O)c2ccccc2OC)cc1 | inactive
52 | CCCC(=O)Nc1nn(CCC)c2nc3ccccc3cc12 | inconclusive: 5.17 µM [inhibitor, partial curve, poor fit]
53 | Cc1ccc(NC(=S)NCCO)c(C)c1 | inactive
54 | CC(C)(C)c1ccc(-c2nc(O)c(CC(=O)O)s2)cc1 | inconclusive: 16.4 µM [activator, partial curve]
55 | O=C(NCC1CCCO1)c1ccc(-c2ccccc2Cl)o1 (stereo unspecified) | inconclusive: 9.2 µM [activator, partial curve]
56 | CC1CCCN(C(=O)C(C)Sc2nc(-c3ccccc3)cc(C(F)(F)F)n2)C1 (stereo unspecified) | inconclusive: 25.9 µM [inhibitor, single point]
57 | CN1CCc2c(sc3c2C(=O)NC(c2cccs2)N3)C1 (stereo unspecified) | inconclusive: 8.2 µM [activator, partial curve, poor fit]
58 | O=C(CCc1nnc2n(Cc3ccc(Cl)cc3)c(=O)c3ccccc3n12)NCCN1CCCC1 | inconclusive: 25.9 µM [activator, partial curve, poor fit]
59 | NC(=O)c1ccccc1NC(=O)CN1CCCCCC1 | inactive
60 | Cc1ccc(/C=C2/C(=O)N(c3ccccc3)C(=S)N2C)o1 | inconclusive: 32.6 µM [activator, partial curve, poor fit]
61 | O=C(Nc1ccc(Cl)cn1)Nc1cccs1 | inconclusive: 16.4 µM [activator, partial curve]
62 | COc1ccc2cc([C@H](C)C(=O)N(C)Cc3ccccc3N3CCCC3)ccc2c1 | inconclusive: 29.1 µM [inhibitor, single point]
63 | CN(CC(=O)Nc1ccc(Cl)c(C(F)(F)F)c1)C(=O)CNC(=O)C1CCCCC1 | inactive
64 | Cc1cc(N2CCOCC2)nc(SCC(=O)c2ccccc2)n1 | inconclusive: 20.6 µM [activator, partial curve, poor fit]
65 | COc1ccc(OCc2nn3c(Cn4cnc5ccccc54)nnc3s2)cc1 | active: 23.1 µM
66 | CCn1cc(CCC(=O)NCCc2ccccc2)c2ccccc21 | inactive
67 | O=C(CSc1ncnc2c1cnn2Cc1ccccc1)Nc1ccc2c(c1)OCCO2 | inconclusive: 20.6 µM [inhibitor, single point]
68 | CC(Oc1ccc(Cl)cc1Cl)c1nc(-c2ccc(NC(=O)c3ccccn3)cc2)no1 (stereo unspecified) | inconclusive: 4.11 µM [activator, partial curve]
69 | O=C(NCC(c1ccco1)N1CCc2ccccc2C1)C(=O)Nc1ccccc1F (stereo unspecified) | inactive
70 | CN(CC(=O)Nc1ccc(F)cc1)C(=O)Cc1ccsc1 | inactive
71 | O=C(Nc1ccc(NC(=O)C2CC2)nc1)c1ccco1 | inconclusive: 18.4 µM [activator, partial curve]
